Data published in the supplement of paper PMC6411743.
± gives the standard deviation of the averaged measurements. The list shows a part of the results.

Sequences of proteins named here, by UniProt entry; tags and fusion partners are left off. A change or cut given only in a name is not applied to a line headed by its entry.
UniProt Q9UKD1: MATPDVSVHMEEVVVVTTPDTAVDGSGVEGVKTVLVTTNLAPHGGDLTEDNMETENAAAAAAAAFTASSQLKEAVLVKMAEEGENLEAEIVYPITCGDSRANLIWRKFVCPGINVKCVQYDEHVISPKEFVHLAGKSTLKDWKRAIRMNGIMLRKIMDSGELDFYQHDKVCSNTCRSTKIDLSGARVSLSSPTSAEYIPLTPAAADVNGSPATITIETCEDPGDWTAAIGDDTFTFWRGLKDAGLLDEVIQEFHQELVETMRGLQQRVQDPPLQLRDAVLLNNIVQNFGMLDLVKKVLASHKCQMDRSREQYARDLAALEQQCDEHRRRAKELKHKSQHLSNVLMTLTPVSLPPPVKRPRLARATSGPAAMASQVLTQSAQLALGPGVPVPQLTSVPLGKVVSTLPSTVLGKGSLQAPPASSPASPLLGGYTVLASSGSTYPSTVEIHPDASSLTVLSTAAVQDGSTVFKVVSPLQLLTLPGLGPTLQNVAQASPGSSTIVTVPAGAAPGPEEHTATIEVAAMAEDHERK
UniProt Q15067: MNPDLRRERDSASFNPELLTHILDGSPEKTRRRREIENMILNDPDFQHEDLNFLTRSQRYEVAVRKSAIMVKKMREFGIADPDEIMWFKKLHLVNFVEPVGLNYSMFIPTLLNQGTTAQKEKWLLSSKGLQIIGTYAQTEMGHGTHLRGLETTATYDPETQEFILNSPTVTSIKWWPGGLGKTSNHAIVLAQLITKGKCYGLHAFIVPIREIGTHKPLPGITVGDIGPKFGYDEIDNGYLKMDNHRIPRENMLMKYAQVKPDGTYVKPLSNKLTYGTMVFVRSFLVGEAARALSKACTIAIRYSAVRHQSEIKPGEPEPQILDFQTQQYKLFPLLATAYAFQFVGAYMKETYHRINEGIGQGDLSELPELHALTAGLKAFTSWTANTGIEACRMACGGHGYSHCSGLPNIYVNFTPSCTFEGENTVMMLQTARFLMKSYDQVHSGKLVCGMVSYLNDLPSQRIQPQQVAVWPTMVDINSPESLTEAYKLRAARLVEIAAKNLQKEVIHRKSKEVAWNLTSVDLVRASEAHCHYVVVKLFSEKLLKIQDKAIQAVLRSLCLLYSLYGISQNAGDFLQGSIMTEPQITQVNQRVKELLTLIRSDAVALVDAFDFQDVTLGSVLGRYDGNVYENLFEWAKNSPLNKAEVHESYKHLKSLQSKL
UniProt Q3SXY8: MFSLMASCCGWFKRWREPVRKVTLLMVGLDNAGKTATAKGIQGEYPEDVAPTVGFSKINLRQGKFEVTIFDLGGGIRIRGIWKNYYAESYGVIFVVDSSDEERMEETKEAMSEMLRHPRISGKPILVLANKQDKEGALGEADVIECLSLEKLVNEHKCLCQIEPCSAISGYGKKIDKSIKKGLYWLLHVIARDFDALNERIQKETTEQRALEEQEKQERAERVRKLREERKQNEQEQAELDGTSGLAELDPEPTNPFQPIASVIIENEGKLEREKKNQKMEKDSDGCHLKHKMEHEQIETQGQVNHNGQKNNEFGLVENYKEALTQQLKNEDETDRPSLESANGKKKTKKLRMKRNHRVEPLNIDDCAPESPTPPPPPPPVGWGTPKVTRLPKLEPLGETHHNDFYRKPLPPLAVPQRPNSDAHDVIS
UniProt Q7Z4G4: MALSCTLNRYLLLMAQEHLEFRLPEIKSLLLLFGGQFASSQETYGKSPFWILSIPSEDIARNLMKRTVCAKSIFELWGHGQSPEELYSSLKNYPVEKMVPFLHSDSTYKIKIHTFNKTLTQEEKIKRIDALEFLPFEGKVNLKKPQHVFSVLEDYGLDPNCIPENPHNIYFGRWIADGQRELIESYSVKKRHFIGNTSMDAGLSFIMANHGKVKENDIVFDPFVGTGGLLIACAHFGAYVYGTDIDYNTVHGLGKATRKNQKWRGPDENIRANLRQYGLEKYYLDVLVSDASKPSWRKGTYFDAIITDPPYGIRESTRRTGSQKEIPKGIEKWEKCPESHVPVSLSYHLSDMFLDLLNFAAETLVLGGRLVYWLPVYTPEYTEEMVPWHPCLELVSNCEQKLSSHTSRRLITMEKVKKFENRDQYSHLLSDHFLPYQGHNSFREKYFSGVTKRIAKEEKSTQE
UniProt Q5JTH9: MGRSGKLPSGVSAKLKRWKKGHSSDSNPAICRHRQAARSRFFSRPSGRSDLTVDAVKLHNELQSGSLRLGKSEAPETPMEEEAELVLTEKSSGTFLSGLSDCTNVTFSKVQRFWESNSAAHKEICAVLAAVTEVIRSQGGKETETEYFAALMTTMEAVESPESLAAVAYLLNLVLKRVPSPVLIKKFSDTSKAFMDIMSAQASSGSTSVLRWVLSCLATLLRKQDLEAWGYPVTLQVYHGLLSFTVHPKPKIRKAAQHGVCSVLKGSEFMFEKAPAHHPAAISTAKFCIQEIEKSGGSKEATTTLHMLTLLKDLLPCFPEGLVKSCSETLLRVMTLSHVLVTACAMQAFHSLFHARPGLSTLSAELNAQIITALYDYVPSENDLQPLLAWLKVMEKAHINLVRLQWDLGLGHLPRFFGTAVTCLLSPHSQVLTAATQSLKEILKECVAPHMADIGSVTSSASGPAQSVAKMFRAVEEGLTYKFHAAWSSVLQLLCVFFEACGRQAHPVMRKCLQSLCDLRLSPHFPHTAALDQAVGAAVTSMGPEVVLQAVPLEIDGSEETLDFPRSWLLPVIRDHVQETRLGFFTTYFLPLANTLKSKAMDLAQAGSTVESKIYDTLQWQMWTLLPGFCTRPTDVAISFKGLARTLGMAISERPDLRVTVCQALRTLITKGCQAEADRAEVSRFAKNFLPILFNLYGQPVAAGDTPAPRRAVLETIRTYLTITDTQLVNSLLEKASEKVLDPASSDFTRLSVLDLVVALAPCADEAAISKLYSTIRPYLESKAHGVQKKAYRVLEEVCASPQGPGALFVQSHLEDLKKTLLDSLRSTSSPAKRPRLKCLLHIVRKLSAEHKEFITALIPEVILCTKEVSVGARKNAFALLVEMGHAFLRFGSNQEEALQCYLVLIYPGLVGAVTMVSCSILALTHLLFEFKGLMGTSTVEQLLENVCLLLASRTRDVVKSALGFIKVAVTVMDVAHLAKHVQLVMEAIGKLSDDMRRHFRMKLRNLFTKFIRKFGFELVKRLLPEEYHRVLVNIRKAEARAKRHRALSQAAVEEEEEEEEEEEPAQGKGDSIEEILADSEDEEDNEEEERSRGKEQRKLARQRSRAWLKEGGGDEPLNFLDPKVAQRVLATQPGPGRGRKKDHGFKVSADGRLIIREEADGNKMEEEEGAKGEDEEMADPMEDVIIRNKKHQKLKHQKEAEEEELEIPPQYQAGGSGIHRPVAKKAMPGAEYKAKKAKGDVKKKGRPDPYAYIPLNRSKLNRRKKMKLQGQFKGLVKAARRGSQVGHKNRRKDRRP

Compound: Nc1nc2c(ncn2[C@@H]2O[C@H](COP(=O)(O)OP(=O)(O)OP(=O)(O)O)[C@@H](O)[C@H]2O)c(=O)[nH]1 [guanosine triphosphate]
Experiment: NP40-soluble protein abundance relative to vehicle (solubility fold change) (ratio); higher = more soluble protein in presence of GTP
Description: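 Solubility proteome profiling in Jurkat crude lysate. Lysate was treated with Mg-GTP (0.1-10 mM) for 10 min at room temperature and 3 min at 37 °C, then solubilised with 0.8% NP40 and benzonase, followed by ultracentrifugation. Proteins were quantified by TMT10 LC-MS/MS; the value is the NP40-soluble abundance relative to the NP40-processed vehicle, from 3 independent experiments.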

Row | Target | NP40-soluble protein abundance (concentration: 0.1mM) | NP40-soluble protein abundance (concentration: 0.5mM) | NP40-soluble protein abundance (concentration: 1mM) | NP40-soluble protein abundance (concentration: 2mM) | NP40-soluble protein abundance (concentration: 4mM) | NP40-soluble protein abundance (concentration: 6mM) | NP40-soluble protein abundance (concentration: 8mM) | NP40-soluble protein abundance (concentration: 10mM)
1 | Q5JTV1 and related entries (UniProt Q9UKD1) | 1.01 ± 0.068 | 1.04 ± 0.029 | 0.954 ± 0.063 | 0.961 ± 0.039 | 0.934 ± 0.069 | 0.97 ± 0.093 | 0.963 ± 0.1 | 0.968 ± 0.061
2 | UniProt Q15067 and related entries | 0.989 ± 0.054 | 1.03 ± 0.082 | 0.889 ± 0.017 | 0.95 ± 0.069 | 0.904 ± 0.035 | 0.924 ± 0.036 | 0.841 ± 0.013 | 0.867 ± 0.048
3 | UniProt Q3SXY8 and related entries | 1.11 ± 0.063 | 1.07 ± 0.1 | 1.16 ± 0.11 | 1.11 ± 0.16 | 1.09 ± 0.19 | 1.1 ± 0.16 | 1.19 ± 0.094 | 1.19 ± 0.13
4 | Q5JY02 and related entries (UniProt Q7Z4G4) | 0.965 ± 0.089 | 0.994 ± 0.13 | 1.05 ± 0.024 | 0.925 ± 0.1 | 0.946 ± 0.068 | 0.982 ± 0.035 | 1.01 ± 0.011 | 0.945 ± 0.064
5 | UniProt Q5JTH9 and related entries | 1.08 ± 0.053 | 1.08 ± 0.081 | 1.09 ± 0.091 | 1.1 ± 0.15 | 1.11 ± 0.14 | 1.08 ± 0.16 | 1.08 ± 0.15 | 1.11 ± 0.15
